What was measured:
[1] = Stability of compounds in mouse liver microsomes
[2] = Stability of compounds in human liver microsomes
[3] = Stability of compounds in rat liver microsomes

- Remaining, % (T=60min) [1]: 0.0%
- Remaining, % (NCF=60min) ([1]; no co-factor (no NADPH)): 111.8%
- Remaining, % (T=60min) [2]: 0.0%
- Remaining, % (NCF=60min) ([2]; no co-factor (no NADPH)): 92.4%
- Remaining, % (T=60min) [3]: 0.0%
- Remaining, % (NCF=60min) ([3]; no co-factor (no NADPH)): 103.2%
Compound: CCCNCC(O)COc1ccccc1C(=O)CCc1ccccc1 (stereo not drawn) [Propafenone, reference compound]

Source: PMC9233675, “Ru(II) photocages enable precise control over enzyme activity with red light” (Nature Communications, 2022)
